{
  "source": "patent US7867545B2",
  "about": "“Homogenous granular solid matrix containing vegetable protein” (J.P.M.E.D. Ltd., priority 2000, dated 2011)",
  "assay": "Bitterness / taste evaluation of aliquots and granules",
  "data": [
    {"substance": "Zinc gluconate", "values": [
      {"measurement": "taste / taste masking", "result": "typically bitter, and causes a metallic sensation and very unpleasant taste in the mouth"}
    ]},
    {"substance": "ferrous sulfate", "values": [
      {"measurement": "bitterness evaluated", "setting": "dose of 10 mg of ferrous chelate in 100 ml tomato juice", "result": "typically bitter and very unpleasant in the mouth"},
      {"measurement": "bitterness evaluated", "setting": "dose of 10 mg of ferrous sulfate in 100 ml tomato juice", "result": "typically bitter and very unpleasant in the mouth"}
    ]}
  ]
}
